In article PMC12179280 one finds binding data, which are given here for 1 substance.

Amino acid sequences for entries named in this document (tags omitted).
UniProt P08754: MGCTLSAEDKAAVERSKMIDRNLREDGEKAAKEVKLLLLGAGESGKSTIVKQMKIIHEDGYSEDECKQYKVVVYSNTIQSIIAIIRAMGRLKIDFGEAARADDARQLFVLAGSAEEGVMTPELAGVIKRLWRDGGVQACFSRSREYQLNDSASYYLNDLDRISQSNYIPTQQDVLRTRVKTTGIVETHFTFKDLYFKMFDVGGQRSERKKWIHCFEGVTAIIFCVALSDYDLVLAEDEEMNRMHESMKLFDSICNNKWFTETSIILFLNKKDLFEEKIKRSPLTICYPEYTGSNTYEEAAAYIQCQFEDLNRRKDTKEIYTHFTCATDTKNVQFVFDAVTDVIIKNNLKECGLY
UniProt O95377: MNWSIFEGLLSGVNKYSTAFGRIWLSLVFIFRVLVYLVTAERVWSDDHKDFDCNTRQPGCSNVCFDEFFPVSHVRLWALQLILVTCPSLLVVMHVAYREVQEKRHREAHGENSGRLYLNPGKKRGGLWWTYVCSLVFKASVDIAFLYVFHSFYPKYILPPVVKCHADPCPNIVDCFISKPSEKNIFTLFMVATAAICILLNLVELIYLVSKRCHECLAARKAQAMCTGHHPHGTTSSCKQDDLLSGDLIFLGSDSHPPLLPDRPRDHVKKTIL

In experiment [1] the target is Gαi3 (G alpha inhibitory protein 3) (human (endogenous in primary cervical cancer cells and cervical cancer tissues)) (UniProt P08754). Kind of experiment: co-IP; lysates of human cervical cancer tissues of three representative patients; endogenous proteins; protocol in ref. 30.
The target is the same in experiment [2]. Kind of experiment: co-IP; lysates of priCC-1 and priCC-2 primary human cervical cancer cells; endogenous proteins; protocol in ref. 30.

No constants are given. Whether binding was seen depends on the method and setting. Binding seen in cells or lysates may run through a third protein. Some binding calls cover weakened binding; strength is not graded here.

As for “Gap junction protein beta 5 (from UniProt O95377 1-273)”, the binding entry in experiment [1] and in experiment [2] was “binds” in each case.
